Some of the results follow. The source does not settle which construct or isoform was used.

For the experiment, the target named is T1, ELF2 (UniProt Q15723).
T1 sequence: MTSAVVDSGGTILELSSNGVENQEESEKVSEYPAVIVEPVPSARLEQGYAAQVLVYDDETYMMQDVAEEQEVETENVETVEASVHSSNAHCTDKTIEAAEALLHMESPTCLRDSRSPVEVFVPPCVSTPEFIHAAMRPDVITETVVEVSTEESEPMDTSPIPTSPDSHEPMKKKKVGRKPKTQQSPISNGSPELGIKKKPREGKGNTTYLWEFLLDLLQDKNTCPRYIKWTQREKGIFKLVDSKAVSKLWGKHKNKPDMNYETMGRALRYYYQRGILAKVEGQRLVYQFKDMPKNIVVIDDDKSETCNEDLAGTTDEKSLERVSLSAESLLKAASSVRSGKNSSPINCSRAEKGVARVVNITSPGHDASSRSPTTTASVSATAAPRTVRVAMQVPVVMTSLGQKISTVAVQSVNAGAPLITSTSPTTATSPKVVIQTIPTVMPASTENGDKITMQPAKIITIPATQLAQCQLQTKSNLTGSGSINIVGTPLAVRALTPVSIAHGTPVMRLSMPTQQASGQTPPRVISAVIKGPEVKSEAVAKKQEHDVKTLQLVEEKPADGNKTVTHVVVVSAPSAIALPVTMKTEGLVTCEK
Kind of experiment: DAPPL (digital affinity profiling via proximity ligation, sequencing). To be noted: 10 mM Tris-HCl pH 7.5, 50 mM NaCl, 1 mM DTT, 4% glycerol, room temperature, 30 min; GST-TFs on glutathione beads, 16-mer random dsDNA library, 0.1% …; high values mean tight binding; double strand, one strand shown; scale: fold enrichment (6-mer frequency, TF over GST control).
CTGTAT showed a binding signal of 1.3.

CCAAGA registered a binding signal of 0.875.

On to AACTAC, for which the binding signal stood at 1.5.

Consider AATTAA, for which the binding signal came to 1.29.

For the sequence TATCAC, the binding signal is 1.22.

In the case of TCCGAT, the binding signal was 1.31.

For the sequence GGATTA, the binding signal turned out to be 0.842.

For the sequence TCAGCT, the binding signal was determined as 1.03.

AGTACT: the binding signal amounted to 1.25.

CCTTGA yielded a binding signal of 1.19.

GTTCGC showed a binding signal of 0.996.

TTGACT yielded a binding signal of 1.14.

Regarding TAGACA, the binding signal amounted to 0.941.

Sequence CCTTAT displayed a binding signal of 1.54.

Turning to GGGAAA, the binding signal is 1.07.

The sequence TGGGCT returned a binding signal of 1.36.

In turn, GTCTAG returned a binding signal of 0.832.

On to AGAGAA, for which the binding signal stood at 0.812.

CTACCT had a binding signal of 1.4.

Sequence ACCCTC returned a binding signal of 1.09.

CCTAAG gave a binding signal of 1.08.

The sequence TACACA returned a binding signal of 1.17.

TAATAT came in with a binding signal of 1.3.

For the sequence ATATTT, the binding signal amounted to 1.64.

In turn, TTAGGC showed a binding signal of 0.938.

As for CAGATA, the binding signal turned out to be 0.918.

CGCAAA: the binding signal worked out at 0.995.

Consider ATCAAC, for which the binding signal is 1.06.

In turn, CTTTGT returned a binding signal of 1.23.

In the case of ATTAAA, the binding signal amounted to 1.12.

AGAATA displayed a binding signal of 1.06.

AGTATA displayed a binding signal of 1.02.

CCCTCT: the binding signal stood at 1.3.

Turning to TAGTTA, the binding signal was found to be 1.12.

In the case of TCCGCC, the binding signal turned out to be 1.77.

Consider CCAGAA, for which the binding signal is 0.987.

The sequence TATCCA returned a binding signal of 1.3.

CTTGGC gave a binding signal of 1.05.

In turn, ATTTAG displayed a binding signal of 1.09.

(Values after article PMC7862700.)
